Measurements: PMC8228365, “Degradation Products of Tryptophan in Cell Culture Media: Contribution to Color and Toxicity” (International Journal of Molecular Sciences, 2021)

Test: Ammonia production in feed with a-ketoglutaric acid during 98-day storage
Format: physicochemical
Settings: 98 days, vs feed without aKG

O=C(O)CCC(=O)C(=O)O [aKG, a-Ketoglutaric acid]
decrease in ammonia (feed stored at 37 °C): 72% | decrease in ammonia (feed stored at RT): 68%
